{
  "source": "PubChem BioAssay AID624297",
  "about": "(National Center for Advancing Translational Sciences (NCATS), 2012)",
  "note": "Several values for one entry are separate records, joined by “and”; a condition that tells them apart may be missing. Equal values may be shown once. About 6,200 (1.8%) of roughly 340,000 compounds were called active. The shares of active, inactive and inconclusive entries below differ from those in the screen. Calls come from the whole dose curve; as a rule, active = well fitted activation curve with a large enough effect; inconclusive = small, poorly fitted or top-dose-only effect; inactive = no such curve, though single readings can be large or run the other way. Potencies beside an inconclusive call are fits to weak or partial responses and may not hold up. Potency is the fitted concentration of half-maximal effect.",
  "data": [
    {"assay": "A quantitative high throughput screen for small molecules that induce DNA re-replication in SW480 colon adenocarcinoma cells; note: nearly all actives have a fitted effect of over 55% in size; for re-replication activation: % of control where 0% means no effect.", "conditions": "Hoechst DNA content imaging, 48 h; re-replication activation: at 46.1 µM (top of the series) unless noted", "summary_of_the_method": "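Quantitative HTS format with DMSO vehicle controls; 48 hr drug incubation at 37 C, then 40 min Hoechst staining and scanning imager measurement at 405 nm excitation.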", "values": [
      {"smiles": "Cc1cc(C)c(-n2nnnc2SCC(=O)c2cccs2)c(C)c1", "Potency": "inconclusive: 0.517 µM [activator, partial curve, poor fit]"},
      {"smiles": "COc1ccc(/C=C2\\SC(=S)N(CCC(=O)NCCCn3ccnc3)C2=O)cc1", "re-replication activation": "inactive: -23%"},
      {"smiles": "CC(C)COc1cc(=O)[nH]c(SCC(C)C)n1", "Potency": "inconclusive: 14.1 µM [activator, partial curve, poor fit]"},
      {"smiles": "CCNC(=S)N/N=C/c1cccs1", "re-replication activation": "inactive: -7.31%"},
      {"smiles": "CCOc1cc(CNc2ccc(N3CCOCC3)cc2)cc(Br)c1OCC", "Potency": "inconclusive: 32.6 µM [activator, partial curve, poor fit]"},
      {"smiles": "C=CC1(C)CN(Cc2ccco2)S(=O)(=O)c2c(F)cccc2O1", "note": "(stereo not given)", "Potency": "inconclusive: 0.92 µM [activator, full curve, poor fit]"},
      {"smiles": "COCCNC(=O)/C(C#N)=C/c1c(N2CCN(C)CC2)nc2ccccn2c1=O", "Potency": "inconclusive: 20.6 µM [activator, single point]"},
      {"smiles": "COc1ccc(C2=CC(c3c(C)nn(-c4ccccc4)c3Cl)n3nnnc3N2)cc1OC", "note": "(stereo not given)", "Potency": "inconclusive: 23.1 µM [activator, single point]"},
      {"smiles": "Clc1cccc(NCc2cn3cccnc3n2)c1", "Potency": "inconclusive: 13 µM [activator, partial curve, poor fit]"},
      {"smiles": "CC(C)(C)c1csc(NC(=O)CCc2ccccc2)n1", "Potency": "inconclusive: 4.61 µM [activator, partial curve, poor fit]"},
      {"smiles": "CCOC(=O)COc1ccc(S(=O)(=O)Nc2cccc(SC)c2)cc1", "re-replication activation": "inactive: -0.962%"},
      {"smiles": "COc1ccc(NC(=O)c2c(C)noc2-c2snnc2C)cc1", "Potency": "inconclusive: 23.1 µM [activator, single point]"},
      {"smiles": "N=c1n(CC(=O)c2ccc(Br)s2)c2ccccc2n1Cc1ccccc1", "Potency": "inconclusive: 29.1 µM [activator, single point]"},
      {"smiles": "COc1ccc(CCN2CC(C(=O)N(C)CC(=O)Nc3ccc(Cl)c(C(F)(F)F)c3)CC2=O)cc1OC", "note": "(stereo not given)", "re-replication activation": "inactive: 9.67%"},
      {"smiles": "Cc1cccc(OCC(=O)NNC(=O)c2cccs2)c1", "Potency": "inconclusive: 29.1 µM [activator, single point]"},
      {"smiles": "CCCN(CCC)CC(O)Cn1c2ccccc2c2ccccc21", "note": "(stereo not given)", "Potency": "inconclusive: 16.4 µM [activator, single point]"},
      {"smiles": "C=CCN(CC=C)c1ncnc2[nH]ncc12", "re-replication activation": "inactive: -0.0022%"},
      {"smiles": "Cn1c(=O)c2[nH]c(NN=Cc3ccc(Br)cc3)nc2n(C)c1=O", "Potency": "inconclusive: 29.1 µM [activator, single point]"},
      {"smiles": "Cc1nc2sc(C(c3ccccc3)N3CCOCC3)c(O)n2n1", "note": "(stereo not given)", "Potency": "active: 16.4 µM"},
      {"smiles": "CC(=O)Oc1cccc2c1C(=O)C1CC=CC(OC(C)=O)C1C2=O", "note": "(stereo not given)", "Potency": "inconclusive: 18.4 µM [activator, partial curve, poor fit]"},
      {"smiles": "O=S(=O)(c1ccccc1)c1nc(-c2ccco2)oc1Nc1ccccc1", "Potency": "inconclusive: 4.61 µM [activator, single point]"},
      {"smiles": "Cc1cc(/C=N/n2cnnc2)c(C)n1-c1ccc(OCc2ccc(F)cc2)cc1", "re-replication activation": "inactive: 1.47%"},
      {"smiles": "COc1cc(NC(=O)CCS(=O)(=O)c2ccc3c(c2)oc(=O)n3C)cc(OC)c1", "Potency": "inconclusive: 18.4 µM [activator, partial curve, poor fit]"},
      {"smiles": "O=S(=O)(c1ccc2nc(-c3ccccc3)[nH]c2c1)N1CCN(c2cccc(Cl)c2)CC1", "Potency": "inconclusive: 25.9 µM [activator, partial curve, poor fit]"},
      {"smiles": "CC(=O)Nc1ccc(NS(=O)(=O)c2cc(Cl)ccc2Cl)cc1", "Potency": "inconclusive: 29.1 µM [activator, single point]"},
      {"smiles": "Cc1ccccc1C(=O)NC1CC(C)(C)NC(C)(C)C1", "re-replication activation": "inactive: -4.67%"},
      {"smiles": "O=C(c1cccc(Cl)c1)N1CCCC(c2ccc(Cl)cc2)=N1", "Potency": "inconclusive: 20.6 µM [activator, single point]"},
      {"smiles": "Cc1cc(C2=NNC(=NCCc3ccccc3)SC2)c(C)n1-c1c(C)n(C)n(-c2ccccc2)c1=O", "Potency": "inconclusive: 29.1 µM [activator, single point]"},
      {"smiles": "CCOC(=O)/C(Sc1nc(-c2ccccc2)cc(-c2ccccc2)c1C#N)=C(\\C)O", "Potency": "active: 11.6 µM"},
      {"smiles": "CCC(C)c1ccc(NC(=S)NC2CCN(Cc3ccccc3)CC2)cc1", "note": "(stereo not given)", "Potency": "inconclusive: 20.6 µM [activator, single point]"},
      {"smiles": "Cc1cc(C(=O)CSc2nnc(Nc3ccccc3)s2)c(C)n1CC1CCCO1", "note": "(stereo not given)", "Potency": "inconclusive: 18.4 µM [activator, partial curve, poor fit]"},
      {"smiles": "COC(=O)c1c(NC(=O)CSc2nnc(-c3cccnc3)n2Cc2ccco2)sc(C)c1C", "Potency": "inconclusive: 18.4 µM [activator, single point]"},
      {"smiles": "CCOc1ccc(S(=O)(=O)N2CCOCC2)cc1NC(=O)CSCc1ccc(C)cc1", "Potency": "inconclusive: 29.1 µM [activator, single point]"},
      {"smiles": "NNC(=O)c1sc2cc(C(F)(F)F)cnc2c1-c1cccs1", "Potency": "inconclusive: 29.1 µM [activator, single point]"},
      {"smiles": "O=C(CSc1n[nH]c(=O)[nH]c1=O)c1ccccc1", "Potency": "inconclusive: 32.6 µM [activator, partial curve, poor fit]"},
      {"smiles": "COc1ccccc1NC(C#N)c1ccccc1OCc1ccccc1", "note": "(stereo not given)", "Potency": "inconclusive: 0.0146 µM [activator, full curve, poor fit]"},
      {"smiles": "O=C(NCCNC(=O)c1cc(OCC(F)(F)F)ccc1OCC(F)(F)F)Nc1cccc(C(F)(F)F)c1", "Potency": "inconclusive: 29.1 µM [activator, partial curve, poor fit]"},
      {"smiles": "C(=C/c1nccc2c1[nH]c1ccccc12)/c1ccc2c(c1)OCO2", "Potency": "active: 20.6 µM"},
      {"smiles": "N#Cc1cccc(NC(=O)CN2NS(=O)(=O)c3ccccc3C2=O)c1", "Potency": "inconclusive: 0.326 µM [activator, full curve, poor fit]"},
      {"smiles": "CCN1C(=O)C(F)(CC)C(=O)c2ccccc21", "note": "(stereo not given)", "re-replication activation": "inactive: 2.66%"},
      {"smiles": "Cc1ccc(-c2cc(C(=O)N3CCN(c4ccccc4O)CC3)c3ccccc3n2)cc1", "Potency": "inconclusive: 29.1 µM [activator, single point]"},
      {"smiles": "Cc1ccc(CC(=O)N(C)CC(=O)N(CC(C)C)c2c(N)n(CC(C)C)c(=O)[nH]c2=O)cc1C", "Potency": "inconclusive: 0.0731 µM [activator, full curve, poor fit]"},
      {"smiles": "O=C(Cc1cccc(NC(=O)C2CCN(C(=O)C3CC3)CC2)c1)Nc1cccc(C(=O)N2CCCCC2)c1", "Potency": "inconclusive: 9.2 µM [activator, partial curve]"},
      {"smiles": "O=C(Cn1nc(-c2ccccc2)oc1=O)OCC(=O)c1ccccc1", "re-replication activation": "inactive: 1.92%"},
      {"smiles": "N#CC1=C(N)Oc2c(ccc3ccccc23)C1c1ccsc1", "note": "(stereo not given)", "Potency": "inconclusive: 7.08 µM [activator, partial curve, poor fit]"},
      {"smiles": "COc1ccc(Cl)cc1S(=O)(=O)Nc1ncn[nH]1", "Potency": "inconclusive: 11.6 µM [activator, partial curve, poor fit]"},
      {"smiles": "CC1(C)Cc2ccccc2-c2n[nH]c(=S)n21", "re-replication activation": "inactive: -0.463%"},
      {"smiles": "COCc1ccccc1C1=CC(=O)C[C@H](c2ccc(F)cc2)C1", "Potency": "inconclusive: 2.91 µM [activator, partial curve, poor fit]"},
      {"smiles": "O=S(=O)(NCC(c1ccc2c(c1)OCO2)N1CCN(c2ccccc2)CC1)c1ccccc1", "note": "(stereo not given)", "Potency": "inconclusive: 29.1 µM [activator, partial curve, poor fit]"},
      {"smiles": "COc1ccc(NC(=O)CCSc2nnnn2C)cc1", "re-replication activation": "inactive: -4.71%"},
      {"smiles": "O=C(/C=C/c1ccccc1)OCN1C(=O)c2ccccc2C1=O", "re-replication activation": "inactive: -7.75%"},
      {"smiles": "Cc1ccc(S(=O)(=O)NC(C)C(=O)OCC(=O)N(C)c2ccccc2)cc1", "note": "(stereo not given)", "re-replication activation": "inactive: -7.57%"},
      {"smiles": "CC(C)(C)CN1CCN(Cc2cc3ccccc3[nH]2)CC1CCO", "note": "(stereo not given)", "Potency": "inconclusive: 0.0651 µM [activator, full curve, poor fit]"},
      {"smiles": "COc1cc(NC(=O)c2cc3ccccc3o2)c(OC)cc1Cl", "Potency": "inconclusive: 29.1 µM [activator, partial curve, poor fit]"},
      {"smiles": "CC(C)(C)C1CCc2c(sc3nc(SCC(N)=O)nc(N)c23)C1", "note": "(stereo not given)", "Potency": "inconclusive: 29.1 µM [activator, single point]"},
      {"smiles": "CCCC/C(C)=N/NC(=O)CN(c1ccc(Br)cc1)S(=O)(=O)c1ccccc1", "Potency": "inconclusive: 29.1 µM [activator, single point]"},
      {"smiles": "Cc1ccn(CCC(=O)NC2CC(C)(C)Cc3c2cnn3-c2ccccc2C)n1", "note": "(stereo not given)", "re-replication activation": "inactive: -2.31%"},
      {"smiles": "CCOc1c(OC(C)=O)ccc(/C=C/c2ccc3cccc(OC)c3n2)c1[N+](=O)[O-]", "Potency": "inconclusive: 16.4 µM [activator, partial curve, poor fit]"},
      {"smiles": "O=C(c1ccc(-n2cncn2)c([N+](=O)[O-])c1)N1CCN(S(=O)(=O)c2ccc(Br)cc2)CC1", "Potency": "inconclusive: 32.6 µM [activator, single point]"},
      {"smiles": "CCOC(=O)C1=C(CC)Nc2ccccc2N=C1NC(=O)Nc1ccc(Cl)c(Cl)c1", "Potency": "inconclusive: 29.1 µM [activator, single point]"},
      {"smiles": "CC(=O)Nc1cccc(C)c1", "Potency": "inconclusive: 0.164 µM [activator, single point]"},
      {"smiles": "COC(=O)N/N=C(C)\\C=C\\c1ccco1", "Potency": "inconclusive: 6.51 µM [activator, single point]"},
      {"smiles": "CC[C@@]1(O)C(=O)OCc2c1cc1n(c2=O)Cc2cc3c(CN(C)C)c(O)ccc3nc2-1", "Potency": "inactive and inconclusive: 29.9 nM [activator, full curve, poor fit]"},
      {"smiles": "N#C/C(=C\\c1c[nH]c2ccccc12)C(=O)Nc1ncc(Cc2ccc(Cl)cc2Cl)s1", "Potency": "inconclusive: 23.1 µM [activator, partial curve, poor fit]"},
      {"smiles": "Cc1ccc(SCc2cc(=O)[nH]c(Nc3nc(C)c4ccc(C)cc4n3)n2)cc1", "re-replication activation": "inactive: -2.63%"}
    ]}
  ]
}
